Laboratory results from patent US20230014907A1, “INHIBITORS OF APOL1 AND METHODS OF USING SAME” (Vertex Pharmaceuticals Incorporated, priority 2020, published 2023).
The structures given here were assigned with low confidence; some may be wrong.

Amino acid sequences for entries named in this document (tags omitted). Residues count along the entry.
UniProt O14791, 28-398 S342G/I384M limits assumed: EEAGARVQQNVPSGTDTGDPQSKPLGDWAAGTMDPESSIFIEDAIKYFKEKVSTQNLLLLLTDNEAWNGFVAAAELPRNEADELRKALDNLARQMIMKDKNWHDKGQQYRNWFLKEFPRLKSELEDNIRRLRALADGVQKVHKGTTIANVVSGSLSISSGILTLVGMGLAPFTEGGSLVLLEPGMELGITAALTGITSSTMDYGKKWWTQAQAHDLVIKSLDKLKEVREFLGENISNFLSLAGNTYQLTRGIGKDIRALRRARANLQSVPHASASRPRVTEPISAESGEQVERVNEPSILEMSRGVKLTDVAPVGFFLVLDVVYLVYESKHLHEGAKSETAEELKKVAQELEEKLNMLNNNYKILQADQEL

Target: G1 APOL1 (Homo sapiens, UniProt O14791, I384M/S342G)
Test: Acute APOL1 Thallium Assay with Inducible Stable Clones of HEK 293 Cells
Settings: read-out: Thallium Assay (IC50), HEK 293 inducible stable clones
Text: Acute APOL1 Thallium Assay with Inducible Stable Clones of HEK 293 Cells
Apolipoprotein L1 (APOL1) proteins form potassium-permeable cation pores in the plasma membrane. APOL1 risk variants (G1 and G2) induce greater potassium flux than G0 in HEK293 cells. This assay exploits the permeability of thallium (Tl+) through ligand-gated potassium channels. The dye produces a bright fluorescent signal upon binding to Tl+ conducted through potassium channels. The intensity of the Tl+ signal is proportional to the number of potassium channels in the open state. Therefore, it provides a functional indication of the potassium channel activities. During the initial dye-loading step, the Tl+ indicator dye as an acetoxymethyl (AM) ester enters the cells through passive diffusion. […] The increase of fluorescence in the assay represents the influx of Tl+ into the cell specifically through the potassium channel (i.e. through APOL1 pores), providing a functional measurement of potassium channel/pore activity. […]
Preparation of Cell Assay Plates • Culture medium is removed from the x cm^2 T-flask by aspiration. • The cell monolayer is rinsed with PBS 1× at room temperature. […] Cell suspension is then transferred to a 50 mL Falcon polypropylene tube. • Cells are then counted using a BioRad TC10 cell counter and the required amount of cells are centrifuged at 1200 RPM for 5 minutes. […]

O=C(NCCc1c(-c2ccc(F)cc2)[nH]c2c(F)cc(F)cc12)[C@@H]1CCCO1
IC50: 250 to 1000 nM
